PubChem BioAssay AID1671195, Yale University, 2021

- Aim: 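Genes whose knockdown alters LDL uptake in liver cancer cells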 (primary screen)
- Cells: human Huh7 hepatoma cells
- Knock-down reagent: siRNA pool against human genes, 18 nM
- Duration: about 2 to 2.5 days of knockdown, then 8 h LDL uptake
- Conditions: DiI-labelled LDL at 30 µg/ml for 8 h, in lipoprotein-deficient serum medium
- Detection: 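Per-cell DiI-LDL intensity by automated imaging; well means scaled to the plate median and given as a robust z-score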
- Direction: robust z-score: higher = more LDL uptake after knockdown
- Rule for the call: 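Active when two or more replicates show a robust z-score above 2 or below -2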
Shown is a random part of about 22,000 reagents. Of all reagents, about 1,510 (6.9%) got an active call. 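Active includes knockdowns raising or lowering LDL uptake; positive z-scores mean more uptake, negative mean less.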 Reagent sequences are not shown.

TNS1 (tensin 1)
- robust z-score, replicate 1: -0.832
- robust z-score, replicate 2: -0.123
- robust z-score, replicate 3: -0.305
- outcome: inactive

DLG4 (discs large MAGUK scaffold protein 4)
- robust z-score, replicate 1: 0.396
- robust z-score, replicate 2: 1.2
- robust z-score, replicate 3: 0.37
- outcome: inactive

GATD3 (glutamine amidotransferase class 1 domain containing 3)
- robust z-score, replicate 1: -1.4
- robust z-score, replicate 2: 0.158
- robust z-score, replicate 3: 1.66
- outcome: inactive

LIN9 (lin-9 DREAM MuvB core complex component)
- robust z-score, replicate 1: 0.148
- robust z-score, replicate 2: -0.106
- robust z-score, replicate 3: -0.202
- outcome: inactive

SPMIP5 (sperm microtubule inner protein 5)
- robust z-score, replicate 1: -1.75
- robust z-score, replicate 2: -2.79
- robust z-score, replicate 3: -1.95
- outcome: active

DMRT3 (doublesex and mab-3 related transcription factor 3)
- robust z-score, replicate 1: 0.442
- robust z-score, replicate 2: 0.553
- robust z-score, replicate 3: 0.333
- outcome: inactive

LOC441189 (retired record)
- robust z-score, replicate 1: 1.36
- robust z-score, replicate 2: 0.0205
- robust z-score, replicate 3: -0.304
- outcome: inactive

GLCCI1 (glucocorticoid induced 1)
- robust z-score, replicate 1: -1.37
- robust z-score, replicate 2: -1.14
- robust z-score, replicate 3: -1.12
- outcome: inactive

PNN (pinin, desmosome associated protein)
- robust z-score, replicate 1: 1.25
- robust z-score, replicate 2: 0.999
- robust z-score, replicate 3: 2.33
- outcome: inactive

C19orf53 (chromosome 19 open reading frame 53)
- robust z-score, replicate 1: -1.29
- robust z-score, replicate 2: 0.663
- robust z-score, replicate 3: 0.728
- outcome: inactive

LOC401495 (retired record)
- robust z-score, replicate 1: 0.827
- robust z-score, replicate 2: 0.0915
- robust z-score, replicate 3: -0.202
- outcome: inactive

YWHAZ
- robust z-score, replicate 1: 1.51
- robust z-score, replicate 2: 0.448
- robust z-score, replicate 3: 1.84
- outcome: inactive

OR9G9 (olfactory receptor family 9 subfamily G member 9)
- robust z-score, replicate 1: 3.36
- robust z-score, replicate 2: 2.77
- robust z-score, replicate 3: 2.36
- outcome: active

SC5D (sterol-C5-desaturase)
- robust z-score, replicate 1: 4.13
- robust z-score, replicate 2: 1.74
- robust z-score, replicate 3: 3.72
- outcome: active

UNC119 (unc-119 lipid binding chaperone)
- robust z-score, replicate 1: -0.117
- robust z-score, replicate 2: -0.176
- robust z-score, replicate 3: 0.0918
- outcome: inactive

CDKL2 (cyclin dependent kinase like 2)
- robust z-score, replicate 1: -0.635
- robust z-score, replicate 2: -0.968
- robust z-score, replicate 3: -0.632
- outcome: inactive

ANK2 (ankyrin 2)
- robust z-score, replicate 1: -0.112
- robust z-score, replicate 2: 0.636
- robust z-score, replicate 3: 1.83
- outcome: inactive

NGDN (neuroguidin)
- robust z-score, replicate 1: -0.485
- robust z-score, replicate 2: -0.817
- robust z-score, replicate 3: -1.22
- outcome: inactive

LOC440280 (retired record)
- robust z-score, replicate 1: 0.554
- robust z-score, replicate 2: 0.0517
- robust z-score, replicate 3: 0.352
- outcome: inactive

ZNF48 (zinc finger protein 48)
- robust z-score, replicate 1: -0.122
- robust z-score, replicate 2: -0.232
- robust z-score, replicate 3: 0.0607
- outcome: inactive

RASSF4 (Ras association domain family member 4)
- robust z-score, replicate 1: 0.297
- robust z-score, replicate 2: 0.196
- robust z-score, replicate 3: 0.357
- outcome: inactive

IGHV5-78 (immunoglobulin heavy variable 5-78 (pseudogene))
- robust z-score, replicate 1: -0.554
- robust z-score, replicate 2: 0.29
- robust z-score, replicate 3: -0.00107
- outcome: inactive

RIN3 (Ras and Rab interactor 3)
- robust z-score, replicate 1: 1.11
- robust z-score, replicate 2: 0.695
- robust z-score, replicate 3: 0.501
- outcome: inactive

DUXA (double homeobox A)
- robust z-score, replicate 1: -0.0988
- robust z-score, replicate 2: -0.495
- robust z-score, replicate 3: -0.781
- outcome: inactive

In a second layout: entries from further up
CDKL2 (cyclin dependent kinase like 2) → robust z-score, replicate 1: -0.635; robust z-score, replicate 2: -0.968; robust z-score, replicate 3: -0.632; outcome: inactive
ANK2 (ankyrin 2) → robust z-score, replicate 1: -0.112; robust z-score, replicate 2: 0.636; robust z-score, replicate 3: 1.83; outcome: inactive
